# Reference: PMC5927468
# No constants are given. Whether binding was seen depends on the method and setting. Binding seen in cells or lysates may run through a third protein. Some results given as binding are weak or reduced against the parent protein; the word gives no strength. Tags and fused reporters may be left off the sequences shown.
# B1: dynamin-1, endogenous in H1299 cells (protein, UniProt Q05193 1-864)
# chain: MGNRGMEDLIPLVNRLQDAFSAIGQNADLDLPQIAVVGGQSAGKSSVLENFVGRDFLPRGSGIVTRRPLVLQLVNATTEYAEFLHCKGKKFTDFEEVRLEIEAETDRVTGTNKGISPVPINLRVYSPHVLNLTLVDLPGMTKVPVGDQPPDIEFQIRDMLMQFVTKENCLILAVSPANSDLANSDALKVAKEVDPQGQRTIGVITKLDLMDEGTDARDVLENKLLPLRRGYIGVVNRSQKDIDGKKDITAALAAERKFFLSHPSYRHLADRMGTPYLQKVLNQQLTNHIRDTLPGLRNKLQSQLLSIEKEVEEYKNFRPDDPARKTKALLQMVQQFAVDFEKRIEGSGDQIDTYELSGGARINRIFHERFPFELVKMEFDEKELRREISYAIKNIHGIRTGLFTPDMAFETIVKKQVKKIREPCLKCVDMVISELISTVRQCTKKLQQYPRLREEMERIVTTHIREREGRTKEQVMLLIDIELAYMNTNHEDFIGFANAQQRSNQMNKKKTSGNQDEILVIRKGWLTINNIGIMKGGSKEYWFVLTAENLSWYKDDEEKEKKYMLSVDNLKLRDVEKGFMSSKHIFALFNTEQRNVYKDYRQLELACETQEEVDSWKASFLRAGVYPERVGDKEKASETEENGSDSFMHSMDPQLERQVETIRNLVDSYMAIVNKTVRDLMPKTIMHLMINNTKEFIFSELLANLYSCGDQNTLMEESAEQAQRRDEMLRMYHALKEALSIIGDINTTTVSTPMPPPVDDSWLQVQSVPAGRRSPTSSPTPQRRAPAVPPARPGSRGPAPGPPPAGSALGGAPPVPSRPGASPDPFGPPPQVPSRPNRAPPGVPSRSGQASPSRPESPRPPFDL
# Target: T1, GST-Amphiphysin II SH3 domain (UniProt O00499)
# T1 sequence: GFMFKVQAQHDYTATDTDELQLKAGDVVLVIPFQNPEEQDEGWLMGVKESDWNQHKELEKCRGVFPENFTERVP
# Assay: pull-down; GST-Amph II SH3 on beads (approximately 20 μl) in about 3 mg H1299 post-nuclear fraction, 1 h rotation; 50 mM Tris, 150 mM NaCl, 0.2% Triton X-100; washed twice; western blot; only the target purified
binder,measurement,value
B1,binding,binds
